Patent US5502164A (priority 1992, dated 1996)

Assay: solid-phase peptide synthesis
Conditions: whole synthesis, ammonium salt

For “Hpa(SO3 H)-Met-Gly-Trp-Met-Asp-MePhe-NH2 (SEQ ID NO 3)”, the difficulty met was “As a result of racemization during the synthesis of Example 9”.
